The source of these data is PMC11206828, “Catalytic Differences between Flavohemoglobins of Giardia intestinalis and E. coli” (Pathogens, 2024).

Protein sequences, listed by entry. Tags and fused reporters are not part of them. Lines headed by an entry give the natural chain unless they say otherwise; changes in a name come on top.
UniProt P24232: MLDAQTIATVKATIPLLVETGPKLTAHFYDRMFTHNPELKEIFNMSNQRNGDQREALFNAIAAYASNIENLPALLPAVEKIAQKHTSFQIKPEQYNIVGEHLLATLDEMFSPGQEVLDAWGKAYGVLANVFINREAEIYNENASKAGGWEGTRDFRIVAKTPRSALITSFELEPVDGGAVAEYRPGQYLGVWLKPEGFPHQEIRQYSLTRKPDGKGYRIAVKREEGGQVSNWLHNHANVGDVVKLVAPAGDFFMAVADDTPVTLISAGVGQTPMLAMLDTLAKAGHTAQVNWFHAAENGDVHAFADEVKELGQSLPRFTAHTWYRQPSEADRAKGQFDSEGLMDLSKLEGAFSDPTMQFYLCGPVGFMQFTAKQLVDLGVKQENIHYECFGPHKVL

Experiment [1] deals with E. coli flavohemoglobin (Hmp) (Escherichia coli, UniProt P24232). Kind of experiment: Nitric oxide dioxygenase (NOD) inhibition assay, Hmp. The experiment is classed as biochemical. To be noted: Nitric oxide dioxygenase inhibition constant Ki, pH 6.5, 37 °C, 100 μM NADH, 1 μM NO, imidazole: Ki of the inhibitor-sensitive phase of a biphasic fit. On the procedure: The inhibitor was included in the assay solution before the addition of PROLI-NONOate. Inhibitors were also preincubated in the enzyme stock solutions at the same concentration. […] All inhibition experiments were done using the same enzyme preparations. Each assay at a particular concentration of inhibitor was measured in triplicate or more. […] To determine inhibition constants Ki, rate data obtained at different inhibitor concentrations were fit to the equation for non-competitive inhibition nonlinear regression (Equation (1)) using Graphpad Prism software. (1) v=Vmax/(Km,NO+[NO])1+[I]/Ki

In a further experiment the target is YHb flavohemoglobin. The conditions noted are these: read-out: Inhibition constant for YHb flavohemoglobin; cited from earlier work.

In the case of `Clc1ccc(COC(Cn2ccnc2)c2ccc(Cl)cc2Cl)c(Cl)c1` (centres unmarked) [Miconazole, miconazole], the values for the Ki (in experiment [1]; at YHb flavohemoglobin) were 0.27 ± 0.07 µM and around 12 µM, respectively.
